# Results are given in words; binding and its absence hold for the method and conditions named. In cells and extracts the contact can be indirect.
# By UniProt entry, the sequences of proteins in these tests, tags left out. Residues count along the entry.
# UniProt Q16595, residues 42-210: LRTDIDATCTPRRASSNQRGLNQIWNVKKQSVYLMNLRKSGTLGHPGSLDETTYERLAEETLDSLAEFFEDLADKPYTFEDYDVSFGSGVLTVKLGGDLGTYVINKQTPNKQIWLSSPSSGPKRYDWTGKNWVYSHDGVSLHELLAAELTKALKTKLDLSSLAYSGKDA
# Target: T1, mitochondrial aconitase (mACO) (human (endogenous in HeLa)) (UniProt Q99798)
# T1 sequence: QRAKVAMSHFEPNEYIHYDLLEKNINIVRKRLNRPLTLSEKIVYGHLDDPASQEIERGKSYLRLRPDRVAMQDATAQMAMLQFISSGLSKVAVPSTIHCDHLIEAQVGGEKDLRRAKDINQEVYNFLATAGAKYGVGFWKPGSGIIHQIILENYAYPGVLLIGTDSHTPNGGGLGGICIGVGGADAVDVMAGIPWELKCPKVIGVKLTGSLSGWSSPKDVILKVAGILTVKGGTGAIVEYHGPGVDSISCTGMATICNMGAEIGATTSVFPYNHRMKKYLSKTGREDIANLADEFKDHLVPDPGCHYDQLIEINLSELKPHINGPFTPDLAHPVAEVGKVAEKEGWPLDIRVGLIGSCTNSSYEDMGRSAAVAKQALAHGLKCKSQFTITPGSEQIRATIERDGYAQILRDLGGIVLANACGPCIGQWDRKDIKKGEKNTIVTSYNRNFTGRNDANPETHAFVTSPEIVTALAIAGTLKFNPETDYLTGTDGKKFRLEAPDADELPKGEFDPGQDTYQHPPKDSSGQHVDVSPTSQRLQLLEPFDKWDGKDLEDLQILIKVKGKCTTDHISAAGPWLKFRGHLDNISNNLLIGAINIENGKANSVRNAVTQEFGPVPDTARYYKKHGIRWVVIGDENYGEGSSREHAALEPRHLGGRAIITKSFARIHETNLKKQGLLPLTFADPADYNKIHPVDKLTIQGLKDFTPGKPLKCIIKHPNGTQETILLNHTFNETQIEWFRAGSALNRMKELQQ
# Experiment: co-IP; IP of endogenous mitochondrial aconitase from HeLa mitochondrial extracts with an anti-aconitase antibody; mitochondria treated with 100 µM hydrogen peroxide and 2 mM citrate; western blot for frataxin
substance,measurement,value
endogenous frataxin (from UniProt Q16595 42-210),binding,no binding

# From paper PMC3027643
